Laboratory results: PMC5735166

How the values were obtained:
[1] = tested on: GST-VANC21; test: EMSA; details: 15 mM Tris-HCl pH 7.5, 300 mM NaCl, 3 mM MgCl2, 0.04% Triton X, 4% glycerol, 0.5 mM DTT, 30 ng poly:IC, 15 ul, 4 C 30 min; 0.15 pmol 32P-dsDNA, ~2.5 ug GST-VANC21; recombinant protein; protein details: N-terminal GST; label: 32P 5' end
[2] = tested on: GST-VANC21; test: competition with a labelled probe; details: unlabeled competitor; 15 mM Tris-HCl pH 7.5, 300 mM NaCl, 3 mM MgCl2, 0.04% Triton X, 4% glycerol, 0.5 mM DTT, 30 ng poly:IC, 15 ul, 4 C 30 min; 0.15 pmol 32P-dsDNA, ~2.5 ug GST-VANC21; recombinant protein; protein details: N-terminal GST; label: 32P 5' end
[3] = tested on: VANC6 (GST removed) (Arabidopsis thaliana (ddm1-1 cDNA)); test: EMSA; details: 15 mM Tris-HCl pH 7.5, 300 mM NaCl, 3 mM MgCl2, 0.04% Triton X, 4% glycerol, 0.5 mM DTT, 30 ng poly:IC, 15 ul, 4 C 30 min; 0.15 pmol 32P-dsDNA, ~2.5 ug GST-VANC21; recombinant protein; label: 32P 5' end

Sequence | binding result [1] | binding result [2] | binding result [3]
AGATACTTCGGAATTGGTTTTCATGACGGACAGAAATGCA (double strand) [probe 4] | binds more weakly |  | 
AAATTTAGTTAAACCTTAGCATTACGCGATATTACCAATT (double strand) [probe 7*] | binds more weakly |  | 
ATTTCCCTTGTATTCTCAGTATTATCGTTAAATCCTAGTA (double strand) [probe 3] | binds |  | 
AATGTTTAAATAGCACCAGTATTACTTAGACACGTAGTAT (double strand) [probe 1] | binds | binds | 
ATCCATAACACCAACTTAGTATTACCAGTAGTACTAATAT (double strand) [probe 6] | binds |  | 
ATTTCCCTTGTATTCTCAGCATTATCGTTAAATCCTAGTA (double strand) [probe 3*] | binds more weakly |  | 
GTAGCTAAGTTGTCCCAGTTGGCCGGTCGATACACATAA (double strand) [Supp Fig 12 probe 2] |  |  | binds
AACGGCACAAACGACTGCGACGGCGATGGCAACGACAGCA (double strand) [probe 5] | binds more weakly |  | 
ATCCATAACACCAACTTAGCATTACCAGTAGTACTAATAT (double strand) [probe 6*] | binds more weakly |  | 
AATTCCCCGTAATTACCAGTATTACACAGATACTCCTATT (double strand) [probe 2] | binds | binds | 
AATGTTTAAATAGCACCAGCATTACTTAGACACGTAGTAT (double strand) [probe 1*] | binds more weakly |  | 
AAATTTAGTTAAACCTTAGTATTACGCGATATTACCAATT (double strand) [probe 7] | binds |  | 
AATTCCCCGTAATTACCAGCATTACACAGATACTCCTATT (double strand) [probe 2*] | binds more weakly |  | 

Construct, isoform or probe ends are uncertain for at least one entry. For part of these data: The comparison behind a weaker result is the experiment's own reference, which may not be listed here. For part of these data: At least one verdict was read from the data and is not stated in words by the source.
